Article PMC6001661
These are yes or no findings as the source states them, for the method shown. Binding can be weak; no strength is given. Sequences can lack the tags named with a protein. For part of these data: In cells and extracts the contact can be indirect. Blank lines part the entries; values can stand above or below the substance they belong to.

How the values were obtained:
[1] = molecular target: T1, HA-OsTrx1 (rice (Oryza sativa)) (UniProt Q6K431); assay: co-IP; rice protoplasts co-transformed; lysed in PEN-140 buffer, precipitated with anti-HA and Protein G beads, five washes with PEN-400 (400 mM NaCl); immunoblot with anti-FLAG and anti-HA
T1 sequence: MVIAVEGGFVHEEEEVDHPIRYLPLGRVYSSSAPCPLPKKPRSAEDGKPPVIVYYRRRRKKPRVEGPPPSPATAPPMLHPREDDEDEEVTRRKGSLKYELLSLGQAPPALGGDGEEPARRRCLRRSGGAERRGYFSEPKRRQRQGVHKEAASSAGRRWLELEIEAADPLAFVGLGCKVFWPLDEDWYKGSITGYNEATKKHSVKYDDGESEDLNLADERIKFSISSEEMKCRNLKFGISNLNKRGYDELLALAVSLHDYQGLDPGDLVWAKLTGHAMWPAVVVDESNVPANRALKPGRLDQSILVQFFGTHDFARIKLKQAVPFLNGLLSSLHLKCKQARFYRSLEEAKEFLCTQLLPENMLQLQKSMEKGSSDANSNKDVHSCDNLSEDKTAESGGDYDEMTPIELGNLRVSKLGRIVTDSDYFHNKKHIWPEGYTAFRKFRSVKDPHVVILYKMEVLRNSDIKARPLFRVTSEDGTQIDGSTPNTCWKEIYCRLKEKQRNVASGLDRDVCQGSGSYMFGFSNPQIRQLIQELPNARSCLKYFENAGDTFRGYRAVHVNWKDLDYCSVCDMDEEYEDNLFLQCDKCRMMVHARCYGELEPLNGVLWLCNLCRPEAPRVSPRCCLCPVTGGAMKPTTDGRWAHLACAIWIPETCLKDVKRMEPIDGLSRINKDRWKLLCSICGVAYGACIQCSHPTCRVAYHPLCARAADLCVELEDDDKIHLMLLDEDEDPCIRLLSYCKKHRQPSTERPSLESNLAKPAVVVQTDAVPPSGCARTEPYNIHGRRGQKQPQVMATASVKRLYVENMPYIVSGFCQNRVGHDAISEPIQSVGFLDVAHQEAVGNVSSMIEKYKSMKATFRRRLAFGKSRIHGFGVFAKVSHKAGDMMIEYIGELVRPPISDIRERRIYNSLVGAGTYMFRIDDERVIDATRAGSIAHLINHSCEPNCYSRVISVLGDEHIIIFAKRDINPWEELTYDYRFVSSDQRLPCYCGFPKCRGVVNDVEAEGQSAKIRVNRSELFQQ

[2] = molecular target: T2, OsTrx1 fused with a binding domain (BD), from pGBKT7-OsTrx1 (rice (Oryza sativa)) (UniProt Q6K431); assay: two-hybrid; directed test: pGBKT7-OsTrx1, pGBKT7-OsTrx1N or pGBKT7-OsTrx1C co-transformed with pGADT7-SIP1 in AH109; growth on synthetic defined medium lacking Trp, Leu, His and adenine
T2 sequence: T1 sequence

[3] = molecular target: T3, OsTrx1-YFP^N (OsTrx1 fused with the N-terminal half of yellow fluorescent protein) (rice (Oryza sativa)) (UniProt Q6K431); assay: split reporter; BiFC in rice protoplasts co-transformed with pUC-SPYNE (YFP 1-155) and pUC-SPYCE (YFP 156-239) fusions; confocal microscopy
T3 sequence: T1 sequence

- binding [1]: binds
Substance: FLAG-SIP1 (rice (Oryza sativa))

- binding [2]: binds
Substance: full-length SIP1 fused with AD, from pGADT7-SIP1 (rice (Oryza sativa))

- binding [3]: binds
Substance: full-length SIP1-YFP^C (SIP1 fused with the C-terminal half of YFP) (rice (Oryza sativa))
